Test results taken from patent publication US20200339692A1.
No constants are given. Whether binding was seen depends on the method and setting. Some binding calls cover weakened binding; strength is not graded here.

The chains behind the UniProt entries cited, without tags or fusion partners. Where a name states a change or a piece, a line headed by the entry shows the natural chain unless it says otherwise. Residues count along the entry.
UniProt Q9NZQ7, residues 19-239: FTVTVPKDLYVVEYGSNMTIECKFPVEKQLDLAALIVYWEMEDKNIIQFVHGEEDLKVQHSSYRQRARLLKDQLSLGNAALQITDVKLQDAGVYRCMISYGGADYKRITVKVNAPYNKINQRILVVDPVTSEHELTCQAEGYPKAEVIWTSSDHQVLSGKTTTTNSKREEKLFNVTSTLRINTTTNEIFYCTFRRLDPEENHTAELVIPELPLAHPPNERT

Biological target: human PD-L1 (Cat. #10084-H08H, Sino Biological) (human) (UniProt Q9NZQ7)
Experiment: SPR, Biacore X100

binding: binds
B1: H14L61 (antibody, human IgG1, kappa, V domains shown)
VH: QVQLVQSGAEVKKPGASVKVSCKASGYTFTSYWMHWVRQAPGQGLEWMGRIHPSLGLPLYNEKFKNRVTMTRDTSTSTVYMELSSLRSEDTAVYYCARGGSSYDYFDYWGQGTTVTVSS
VL: DIVLTQSPASLAVSPGQRATITCRASESVSIHGTHLMHWYQQKPGQPPKLLIYAASNLESGVPARFSGSGSGTDFTLTINPVEAEDTANYYCQQSFEDPLTFGQGTKLEIKR
